Data taken from PubChem BioAssay AID504467 (National Center for Advancing Translational Sciences (NCATS), 2011).
The campaign covered roughly 330,000 compounds. About 7,700 (2.3%) were called active. Inconclusive results, whose numbers are uncertain, are shown with a selection of clear calls. Calls come from the whole dose curve; as a rule, active = well fitted inhibition curve with a large enough effect; inconclusive = small, poorly fitted or top-dose-only effect, or effect the other way; inactive = flat fitted curve, though single readings scatter. Where the call is inconclusive, the potency comes from a doubtful curve fit.

assay: qHTS screen for small molecules that inhibit ELG1-dependent DNA repair in human embryonic kidney (HEK293T) cells expressing luciferase-tagged ELG1; settings: HEK293T ELG1-luciferase reporter, luminescence, 16 h, DNA damage induced by 5-fluorouridine; series mostly up to 46.1 µM; note: nearly all actives have a fitted effect of over 55% in size
Procedure, shortened: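 Reporter activity after DNA damage by 5-fluorouridine is monitored. Compound-treated cells incubate 16 hr at 37 °C, then ONE-Glo is added for 30 min before luminescence reading.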
Potency is the fitted concentration of half-maximal effect.

| Structure (SMILES) | Potency |
| --- | --- |
| CCc1cc2ccc(C)cc2nc1SCC(=O)N1CCN(C(=O)c2ccco2)CC1 | inconclusive: 8.2 µM [inhibitor, single point] |
| CC(C)c1ccc(NC(=O)C2CCN(S(C)(=O)=O)CC2)cc1 | inactive |
| COc1ccc(-c2ccc(-c3noc(-c4ccccc4OC)n3)c(OC)n2)cc1 | inactive |
| COc1cc(Br)cc(CN2CCN(C=O)CC2)c1O | inactive |
| COc1ccc(CN2CCOCC2)c(C)c1C | inconclusive: 20.6 µM [activator, single point] |
| O=C(c1ccc2ccccc2c1)C1CCCN(C(=O)CN2C(=O)CSC2=O)C1 (stereo not drawn) | inconclusive: 29.1 µM [inhibitor, single point] |
| Cc1cc(C)c2nc(C)cc(N/N=C/c3ccc(O)cc3)c2c1 | inactive |
| NC(=O)c1nsc(C(=O)N(Cc2ccco2)C(C(=O)NCc2ccccc2)c2ccc(O)cc2)c1N (stereo not drawn) | inconclusive: 29.1 µM [inhibitor, single point] |
| CC(C)Oc1cccc(C(=O)Nc2ccc(Br)cc2F)c1 | inconclusive: 2.91 µM [activator, full curve] |
| CSc1ccccc1C(=O)NCCOc1cccc(C)c1 | inconclusive: 10.3 µM [inhibitor, partial curve, poor fit] |
| O=c1c2cc(Br)ccc2nc(-c2ccc(Cl)cc2)n1O | inconclusive: 29.1 µM [inhibitor, single point] |
| Clc1ccc(-c2nn3c(C4COc5ccccc5O4)nnc3s2)cc1 (stereo not drawn) | inactive |
| Cc1ccccc1OCC(O)CNC1CCC(NCC(O)COc2ccccc2C)CC1 (stereo not drawn) | inconclusive: 18.3 µM [inhibitor, single point] |
| C#CCOCCOCCOCCNc1nc(N2CCN(C(=O)[C@H](CC(N)=O)n3cc(C(N)[C@@H](C)CC)nn3)CC2)nc(N2CCN(C(=O)[C@H](CCCCN)n3cc([C@@H](N)CC(N)=O)nn3)CC2)n1 (stereo partly drawn) | inconclusive: 20.6 µM [activator, partial curve, poor fit] |
| COc1ccc(-n2c(SCC(=O)NCc3ccco3)nc3sc4c(c3c2=O)CCN(C)C4)cc1 | inconclusive: 23.1 µM [activator, partial curve, poor fit] |
| Cc1cccc(NC(=O)CSc2nnc(NC(=O)C3CCC3)s2)c1 | inconclusive: 29.1 µM [inhibitor, single point] |
| COc1ccccc1Nc1ncnc2c1c(C)c(C)n2CCO | inconclusive: 16.4 µM [activator, partial curve] |
| C=CCOC(=O)c1cc(-c2ccc(/C=C3\C(=O)NC(=O)C(C#N)=C3C)o2)ccc1Cl | inconclusive: 23.1 µM [activator, partial curve, poor fit] |

In another format: entries from further up.
Structure (SMILES),Potency
O=c1c2cc(Br)ccc2nc(-c2ccc(Cl)cc2)n1O,"inconclusive: 29.1 µM [inhibitor, single point]"
C=CCOC(=O)c1cc(-c2ccc(/C=C3\C(=O)NC(=O)C(C#N)=C3C)o2)ccc1Cl,"inconclusive: 23.1 µM [activator, partial curve, poor fit]"
